Source: article PMC6695400, “Diversity of oligomerization in Drosophila semaphorins suggests a mechanism of functional fine-tuning” (Nature Communications, 2019)
Results are given in words; binding and its absence hold for the method and conditions named. Binding seen in cells or lysates may run through a third protein. Sequences can lack the tags named with a protein.

Target: Drosophila melanogaster semaphorin-1a full-length ectodomain (Sema1a_(ecto)) (Drosophila melanogaster)
Experiment: pull-down; HEK293T co-transfected with a His6-tagged and a TwinStrep-tagged semaphorin; conditioned medium 5 days post transfection; two-step affinity chromatography (HisTrap, then StrepTactin); western blot and SDS-PAGE of flow-through and eluate

binding: no binding
B1: Drosophila melanogaster full-length secreted semaphorin-2a (Sema2a_(full)) (ligand, UniProt Q24323 26-724, looked up)
chain: DYENTWNFYYERPCCTGNDQGNNNYGKHGADHVREFNCGKLYYRTFHMNEDRDTLYVGAMDRVFRVNLQNISSSNCNRDVINLEPTRDDVVSCVSKGKSQIFDCKNHVRVIQSMDQGDRLYVCGTNAHNPKDYVIYANLTHLPRSEYVIGVGLGIAKCPYDPLDNSTAIYVENGNPGGLPGLYSGTNAEFTKADTVIFRTDLYNTSAKRLEYKFKRTLKYDSKWLDKPNFVGSFDIGEYVYFFFRETAVEYINCGKAVYSRIARVCKKDVGGKNLLAHNWATYLKARLNCSISGEFPFYFNEIQSVYQLPSDKSRFFATFTTSTNGLIGSAVCSFHINEIQAAFNGKFKEQSSSNSAWLPVLNSRVPEPRPGTCVNDTSNLPDTVLNFIRSHPLMDKAVNHEHNNPVYYKRDLVFTKLVVDKIRIDILNQEYIVYYVGTNLGRIYKIVQYYRNGESLSKLLDIFEVAPNEAIQVMEISQTRKSLYIGTDHRIKQIDLAMCNRRYDNCFRCVRDPYCGWDKEANTCRPYELDLLQDVANETSDICDSSVLKKKIVVTYGQSVHLGCFVKIPEVLKNEQVTWYHHSKDKGRYEIRYSPTKYIETTERGLVVVSVNEADGGRYDCHLGGSLLCSYNITVDAHRCTPPNKSNDYQKIYSDWCHEFEKYKTAMKSWEKKQAQCSTRQNFSSNQHPNEIFRKPNV
notes: Semaphorin-2a, Drosophila melanogaster, residues 26D-724V; Disulfide-linked dimer in solution; source: HEK293T (37 °C), transient transfection, purified (HisTrap, SEC)
